Experimental data: US4073917A, “Local anesthetics tertiary aminoalkoxyphenyl ethers” (priority 1974, dated 1978)

Test system: back of the guinea-pig (intact skin)
Assay: surface anesthesia by epicutaneous application to intact skin, pricking test as in the intracutaneous wheal test
Type: in vivo, guinea-pig (Dunkin-Hartley, males)
Excerpt: A. Guinea-pigs (Dunkin-Hartley, males, 4-6 weeks of age 350±50 g) were shaved and depilated. A gauze folded twice (23 mm diameter) was put into the test solution and thereafter in a plastic cup (outer diameter 26 mm, inner diameter 24 mm, inner height 4 mm). The cup with the gauze saturated with test solution was attached to the back of the animal as an occlusive dressing fastened with plaster (25 mm width) wound around the body). […] After the end of the contact time the site of contact was washed and marked with a fatty chalk. With a sharp instrument (e.g. cannula or a pair of tweezers) the place was pricked six times and registering was made as in the intracutaneous wheal test (Bulbring-Wajda: J. Pharmacol., 1945, 85, p 78) on the back of the guinea-pig, i.e. by registering the presence or absence of a characteristic ripple of the skin of the back of the animal. Every pricking which gives no skin contraction was counted. The test was repeated at regular intervals of 5 min, during an interval of 30 min from the end of the application period. The test gives an indication of onset time, depth and duration of block. The percentage block during the 25 min testing period was used as an index for efficiency. The test solution consisted of the test compound (base) dissolved to 10% (w/v, g/ml) in a mixture of isopropanol (65%: v/v), glycerol (25%: v/v) and water (10%: v/v). […]

Compound: CCN(CC)CC(=O)Nc1c(C)cccc1C [Lidocaine, diethylaminoacet-2,6-xylidide]
- surface anesthetic effect (in words): much weaker than that of the new compounds
